{"source": "patent US20100310467A1", "about": "“COMPOSITION AND METHOD FOR GENERATING A METABOLIC PROFILE USING 13C-MR DETECTION” (priority 2007, published 2010)", "key": {"normal rat liver": {"test_system": "normal rat liver", "test": "In vivo 13C-chemical shift imaging of normal rat liver", "set-up": "species or system Wistar rat", "conditions": "2 ml of about 50 mM imaging medium, imaging 15 s after start of injection"}, "fibrotic rat liver": {"test_system": "fibrotic rat liver", "test": "In vivo 13C-chemical shift imaging of fibrotic rat liver (CCl4 induced)", "set-up": "species or system Wistar rat", "conditions": "for 13C-malate signal detection in fibrotic rat liver: CCl4 over 40 days, 2 ml of about 50 mM imaging medium"}}, "data": [{"smiles": "[2H]/C(C(=O)[O-])=C(/[2H])[13C](=O)[O-].[Na+].[Na+]", "note": "[sodium ^13C1-fumarate-d2]", "values": [{"measurement": "13C-malate signal detection in normal rat liver", "setting": "normal rat liver", "result": "Only the ^13C-fumarate signal could be detected"}, {"measurement": "13C-malate signal detection in normal rat liver", "setting": "normal rat liver; listed as 13C1-fumarate-d2", "result": "too low to detect"}, {"measurement": "13C-malate signal detection in fibrotic rat liver", "setting": "fibrotic rat liver", "result": "both the ^13C-fumarate and ^13C-malate signal could be detected"}, {"measurement": "13C-malate signal detection in fibrotic rat liver", "setting": "fibrotic rat liver; listed as 13C1-fumarate-d2", "result": "could be detected"}, {"measurement": "13C-malate signal of fibrotic rat liver compared to normal rat liver", "setting": "fibrotic rat liver; metabolic profile, compared to Example 8", "result": "significantly higher"}]}]}
